Test results: PubChem BioAssay AID1259354 (Paczesny and Yang Labs, IUPUI and University of Michigan, 2018)
Out of some 78,000 compounds screened, about 1,800 (2.3%) were called active. The shares of active, inactive and inconclusive entries below differ from those in the screen. No stated cut-off is given here; in the data, active means inhibition above about 30%; inconclusive means mostly about 10% to 28%; inactive means weaker than that.

Sequences of proteins named here, by UniProt entry; tags and fusion partners are left off. A change or cut given only in a name is not applied to a line headed by its entry.
UniProt Q01638: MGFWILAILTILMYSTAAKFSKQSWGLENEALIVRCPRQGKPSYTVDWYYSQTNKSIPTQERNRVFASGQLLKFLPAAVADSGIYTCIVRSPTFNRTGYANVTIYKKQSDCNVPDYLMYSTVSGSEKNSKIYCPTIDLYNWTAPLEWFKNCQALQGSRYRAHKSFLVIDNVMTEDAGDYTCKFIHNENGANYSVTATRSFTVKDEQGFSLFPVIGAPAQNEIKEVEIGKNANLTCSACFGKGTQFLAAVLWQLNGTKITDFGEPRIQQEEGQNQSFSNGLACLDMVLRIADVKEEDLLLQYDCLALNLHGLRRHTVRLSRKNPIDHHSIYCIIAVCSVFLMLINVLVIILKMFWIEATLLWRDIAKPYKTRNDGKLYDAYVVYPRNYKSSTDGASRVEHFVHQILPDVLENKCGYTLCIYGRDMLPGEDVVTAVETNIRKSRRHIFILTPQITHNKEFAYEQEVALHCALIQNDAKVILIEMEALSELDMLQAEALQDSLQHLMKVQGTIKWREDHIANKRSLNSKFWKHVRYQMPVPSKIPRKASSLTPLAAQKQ

Target: Interleukin-1 receptor-like 1 (Homo sapiens) (UniProt Q01638)
Assay: blocks human ST2 binding to IL-33, primary screen, biochemical, AlphaLISA (AID 1259354)
Settings: AlphaLISA ST2-Fc/biotin-IL-33 interaction, 1 h; at 17 µM, hits give high values

| Compound | inhibition |
| --- | --- |
| CCOc1ccc2nc(SCC(=O)Nc3ccccc3Br)[nH]c2c1 | inactive |
| Cc1cccc(-c2nnc(-c3nc(NC4CCS(=O)(=O)C4)c4ccccc4n3)o2)c1 (configuration not stated) | inconclusive: 12% |
| O=C1OC(=Nc2ccc(Br)cc2)c2ccccc21 | inactive |
| CN(Cc1ccc2nsnc2c1)Cc1nc(-c2cnccn2)no1 | inactive |
| Cc1cc2c(cc1S(=O)(=O)N1CCCC1C(=O)NC1CCCC1)OCC(=O)N2 (configuration not stated) | inconclusive: 15% |
| Cc1ncsc1CCN(C)C(=O)/C=C/c1cnn(C)c1 | inconclusive: 18% |
| Cc1ccc2oc(C(=O)N(Cc3ccccn3)C[C@@H]3CCC(=O)N3)cc2c1 | inconclusive: 12% |
| CN(C)CCNc1nc(-c2ccccc2)nc2ccccc12 | inconclusive: 10% |
| C#CCNC(=O)CC[C@H]1CNC(=O)[C@@H]2[C@@H](CCN2Cc2ccccc2)N1C | inconclusive: 12% |
| O=c1c2ccccc2nc2n1CCC2(Br)Br | inconclusive: 15% |
| COc1ccc(Nc2cc(C)nc(N3CCN(S(=O)(=O)c4cc(C)ccc4OC)CC3)n2)cc1 | inconclusive: 18% |
| c1ccc(CCCN2CCOCC2)cc1 | inactive |
| COc1nc(-c2ccccc2Cl)nc2ccccc12 | inactive |
| Cc1cc(NC(=O)C(C)C)nc2c1c(=O)oc1ccccc12 | inconclusive: 12% |
| C=CCn1c(SCC(=O)Nc2sc3c(c2C(=O)OCC)CCC3)nc2ccccc2c1=O | inactive |
| CC(=O)Nc1cccc(NC(=O)Nc2cccc(Cl)c2)c1 | inactive |
| O=[N+]([O-])c1ccc(S(=O)(=O)c2nc3ccccc3s2)c(Cl)c1 | active: 54% |
| O=C(NC[C@H]1O[C@@H](CO)[C@@H](O)[C@H]1N1CCN(c2ccccc2)CC1)c1cccc(F)c1 | active: 92% |
| CCN1CCC(Cc2nn3c(C4CCCC4)nnc3s2)CC1 | inactive |
| O=C(CCn1cncn1)N1CCCC(Nc2ccc3c(c2)OCCO3)C1 (configuration not stated) | inconclusive: 15% |
| O=C(Nc1cc(Cl)c(Cl)cc1Cl)c1ccccc1Br | inconclusive: 12% |
| Cc1ccc(C)c(NCc2c[nH]c3ccccc23)c1 | inconclusive: 26% |
| O=C(Cn1c(=O)n(CC2CCC(C(=O)N3CCCCC3)CC2)c(=O)c2sccc21)N1CCCC1 (configuration not stated) | inconclusive: 17% |
| O=C(N[C@H]1CN[C@H](C(=O)NCCCn2ccnc2)C1)c1cccc(Cl)c1 | inconclusive: 12% |

Filtered by structure, the compounds so far with an NH in an aromatic ring

| Compound | inhibition |
| --- | --- |
| CCOc1ccc2nc(SCC(=O)Nc3ccccc3Br)[nH]c2c1 | inactive |
| Cc1ccc(C)c(NCc2c[nH]c3ccccc23)c1 | inconclusive: 26% |

Remaining list, next part:

| Compound | inhibition |
| --- | --- |
| Cc1nc(CC(=O)N(C)C(C)c2ccc3c(c2)OCCO3)cs1 (configuration not stated) | inactive |
| CC(C)Cc1n[nH]c2c1CN(C(=O)c1ccc3c(c1)CCO3)CC2 | inactive |
| COc1ccc(CC(=O)Nc2ccc(Nc3nc(C)cc(Nc4ccc(OC)cc4)n3)cc2)cc1 | active: 33% |
| COc1ccccc1CNC(=O)CCCc1ccccc1 | inconclusive: 12% |
| Cc1ccc(NC(=O)c2ccc(=O)n(Cc3ccccc3C)c2)cc1 | inactive |
| CCOc1ccc2nc(SCC(=O)c3ccc([N+](=O)[O-])cc3)sc2c1 | inconclusive: 11% |
| CC1(C)CC(=O)C2=C(C1)Nc1cc(C(=O)c3ccccc3)ccc1NC2c1cccnc1 (configuration not stated) | active: 33% |
| COc1ccc2c(c1)CN(c1ccc(Br)cc1)CO2 | inconclusive: 14% |
| COc1ccc(Nc2nc(-c3cccc([N+](=O)[O-])c3)cs2)cc1 | active: 38% |
| CCN(CC)c1ccc(C2N(c3nccs3)C(=O)C3CCCN32)cc1 (configuration not stated) | inconclusive: 12% |
| CC1=C[C@@H](CNC(=O)C(C)(C)C)[C@H](C(C)C)C[C@H]1CC(=O)N(C)Cc1cccnc1 | inconclusive: 14% |
| CCN(CCCNS(=O)(=O)c1ccc2c(c1)NC(=O)CC(=O)N2)c1ccccc1 | inconclusive: 14% |
| COc1ccc2cc3cc(C(=O)Nc4ccc(F)c(Cl)c4)oc3nc2c1 | inconclusive: 11% |
| OC(COc1ccc2c(c1)CCC2)CN1CCN(c2ccccn2)CC1 (configuration not stated) | inactive |
| CC(c1cccc(-c2cccc(C(=O)c3nccn3C)c2)c1)N(C)C (configuration not stated) | inactive |
| Cc1ccc(N2C(=O)c3cccnc3C2=O)c(C)c1 | inactive |
| CC(Cn1cccn1)C(=O)N1CCOc2c(O)cc(-c3cccnc3)cc2C1 (configuration not stated) | inconclusive: 17% |
| O=C(/C=C(/c1ccccc1)N1CCOCC1)c1ccc([N+](=O)[O-])cc1 | active: 39% |
| Cn1c(=O)[nH]c(=O)c2c1nc(N1CCCC1)n2CCSc1nnnn1-c1ccccc1 | inactive |
| CCOC(=O)C1=C(C)NC(SCC(=O)O)=NC1c1ccccc1 (configuration not stated) | inconclusive: 15% |
| CN1C[C@@H](NC(=O)Nc2ccc(F)cc2F)C[C@H]1c1nc(-c2ccncc2)no1 | inconclusive: 14% |
| CC1(C(=O)NC2CCCCC2)CCC(=O)N1Cc1ccccc1Cl (configuration not stated) | inactive |
| CN(C)C(=O)CO[C@@H]1CO[C@H]2[C@@H]1OC[C@@H]2Nc1nccc(-c2ccccc2)n1 | inconclusive: 10% |
